Literature values as cited in patent US9487559B2, “Compositions comprising multivalent synthetic ligands of surface nucleolin and glycosaminoglycans” (ELRO PHARMA SARL, priority 2010, dated 2016).
For at least one compound, name, drawing or mass did not settle the structure. Square brackets hold non-standard residues; d marks the D form. Side chains are listed from the residue outwards. Peptide text beside a SMILES is read from it. * marks the point of attachment. X1 = NCCCCC(N)CN1CCC[C@H]1C(=O)*; Ahx = NCCCCCC(=O)O

Protein sequences, listed by entry. Tags and fused reporters are not part of them. Residues count along the entry.
UniProt P19338, 647-710: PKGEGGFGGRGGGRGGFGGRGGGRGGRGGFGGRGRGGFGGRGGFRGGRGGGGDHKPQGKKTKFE
UniProt P19338, 309-710: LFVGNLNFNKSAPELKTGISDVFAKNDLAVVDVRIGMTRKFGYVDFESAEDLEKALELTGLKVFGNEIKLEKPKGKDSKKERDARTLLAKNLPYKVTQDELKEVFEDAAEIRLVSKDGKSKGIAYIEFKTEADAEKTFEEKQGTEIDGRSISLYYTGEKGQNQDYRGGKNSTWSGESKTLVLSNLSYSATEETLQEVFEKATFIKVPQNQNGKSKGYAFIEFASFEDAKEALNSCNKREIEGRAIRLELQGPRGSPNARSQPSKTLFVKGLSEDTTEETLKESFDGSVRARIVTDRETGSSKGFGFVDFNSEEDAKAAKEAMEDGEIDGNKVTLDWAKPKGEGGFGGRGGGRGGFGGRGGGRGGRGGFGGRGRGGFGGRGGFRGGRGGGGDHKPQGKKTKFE
UniProt P19338, 1-308: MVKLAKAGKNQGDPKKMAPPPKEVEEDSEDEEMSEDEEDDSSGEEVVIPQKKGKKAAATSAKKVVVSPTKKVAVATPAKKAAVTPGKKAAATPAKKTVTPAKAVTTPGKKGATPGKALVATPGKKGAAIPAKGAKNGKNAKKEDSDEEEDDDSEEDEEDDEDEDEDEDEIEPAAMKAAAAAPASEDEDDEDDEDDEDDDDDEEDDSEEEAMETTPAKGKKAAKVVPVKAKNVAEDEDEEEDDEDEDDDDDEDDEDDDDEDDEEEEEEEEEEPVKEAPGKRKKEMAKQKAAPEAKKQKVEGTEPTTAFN
UniProt P19338, whole entry: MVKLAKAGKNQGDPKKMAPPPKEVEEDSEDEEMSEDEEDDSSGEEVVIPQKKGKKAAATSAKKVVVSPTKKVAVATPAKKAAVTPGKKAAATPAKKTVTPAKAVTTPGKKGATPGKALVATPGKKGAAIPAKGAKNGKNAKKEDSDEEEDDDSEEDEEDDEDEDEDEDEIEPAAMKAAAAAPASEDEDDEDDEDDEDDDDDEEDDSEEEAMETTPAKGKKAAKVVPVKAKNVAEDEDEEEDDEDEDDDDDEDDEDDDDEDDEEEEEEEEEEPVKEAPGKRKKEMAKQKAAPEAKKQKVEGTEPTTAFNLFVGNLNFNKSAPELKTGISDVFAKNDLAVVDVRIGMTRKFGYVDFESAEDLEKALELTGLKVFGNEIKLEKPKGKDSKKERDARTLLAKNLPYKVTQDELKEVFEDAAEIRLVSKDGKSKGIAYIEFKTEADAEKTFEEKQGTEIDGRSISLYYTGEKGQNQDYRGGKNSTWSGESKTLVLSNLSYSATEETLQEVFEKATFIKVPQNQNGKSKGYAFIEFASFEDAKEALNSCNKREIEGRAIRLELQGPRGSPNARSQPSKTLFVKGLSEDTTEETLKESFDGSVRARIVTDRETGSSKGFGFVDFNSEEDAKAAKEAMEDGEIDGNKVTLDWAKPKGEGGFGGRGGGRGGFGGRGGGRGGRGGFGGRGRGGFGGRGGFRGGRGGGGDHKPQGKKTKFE

Target: T1, Human nucleolin (Homo sapiens, UniProt P19338)
T1 construct: made in house; host or cells: rabbit reticulocyte lysate (in vitro transcription/translation) for whole, N- and C-terminal parts; E. coli crude extracts for the GST fusions
Settings: cited from earlier work

[1] = [35S] Met/Cys labelled, in vitro transcription/translation, biotinylated HB19

Question: Which results are given for `N=C(N)NCCC[C@H](NC(=O)[C@@H]1CCCN1CC(N)CCCCN)C(=O)NCCCC[C@H](NC(=O)[C@H](CCCCN)NC(=O)[C@H](CCCCNC(=O)[C@H](CCCNC(=N)N)NC(=O)[C@@H]1CCCN1CC(N)CCCCN)NC(=O)[C@H](CCCNC(=N)N)NC(=O)[C@@H]1CCCN1CC(N)CCCCN)C(=O)NCC(=O)N1CCC[C@H]1C(=O)N[C@@H](CCCCNC(=O)[C@H](CCCNC(=N)N)NC(=O)[C@@H]1CCCN1CC(N)CCCCN)C(=O)N[C@@H](CCC(=O)O)C(=O)N[C@@H](CCCCNC(=O)[C@H](CCCNC(=N)N)NC(=O)[C@@H]1CCCN1CC(N)CCCCN)C(=O)NCCCCCC(N)=O` (stereo partly shown) [HB19, 5[Kψ(CH2N)PR]-TASP] (X1-RK([Arg-X1])KK([Arg-X1])GPK([Arg-X1])EK([Arg-X1])[Ahx]-NH2)?
Answer: interaction with RGG domain of nucleolin (GST fusion constructs produced by E. coli, Western Blot with anti-GST antibodies): alone is enough for this interaction; interaction with C-terminal part of nucleolin (amino acids 309-707) [1]: contains the target for HB19; interaction with N-terminal part of nucleolin (amino acids 1-308) [1]: does not interact at all; interaction with whole nucleolin (amino acids 1-707) [1]: interacts
